In all, about 53,000 sequences went through this assay and about 3,700 (7%) were called active.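 The calls were made as follows: active = gene knockdowns whose robust z-score for IL-1 alpha signal is at least 2 or at most -2, so actives lie on both sides; inactive = the rest.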 The list shows a part of the results.
experiment: Components of the Cytosolic LPS Sensing Pathway: Gene Identification via Genome-wide siRNA Screen; settings: RAW264.7 macrophages, IL-1a HTRF, actives lie on both sides, screened at 100 nM (by protocol), cells primed 5 h with Pam3CSK4 first;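 also: robust z of the log signal after scaling to non-targeting control siRNA wells of the plate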
Procedure, shortened: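 Three distinct siRNAs per gene were tested singly at 100 nM in RAW264.7 macrophages. Following Pam3CSK4 priming and 24 hour LipidA transfection, IL-1a secretion was read by HTRF.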

| Sequence | z-score |
| --- | --- |
| GGACAGGUACAGCAUCAACTT against St3gal5 | inactive: -0.571 |
| GGCACACACAAAGUAUUUCTT against Pxdc1 | inactive: -1.09 |
| GGCUGGAAAGAGACUUUCCTT against Acsm3 | inactive: -0.0815 |
| GGACCUAGACGAUGUCAUGTT against Lrrc4b | inactive: 0.57 |
| GCCACAAUGCUAGAAGAGATT against Apex2 | inactive: -0.0295 |
| CCAUCUAUCAACUUCUACATT against Sat1 | inactive: -0.34 |
| GGAAGAAGCCUUUCAGCAUTT against Cenpa | inactive: -1.39 |
| AGUGCGACAAGGAGGUGUATT against Crip1 | inactive: 1.17 |
| GGAGAUCAUCUUUUCUCAUTT against Slc50a1 | inactive: -0.668 |
| GGAGGUCCCAGUCAUUAUCTT against Gdap1l1 | inactive: -0.97 |
| CGGAAUUUCCACAGCUGUATT against Gde1 | inactive: 0.0422 |
| GGCUUCAGACCCUCAAAAGTT against Spef2 | inactive: -0.00203 |
| GGAUCUUGGGUUGAUAUUUTT against Acsl4 | inactive: -0.524 |
| GGAAGAAUUACAAAGGAUATT against Cnot4 | inactive: -0.974 |
| GGAACUUAUCCUUCAUGGATT against Olfr714 | inactive: 1.63 |
| GCCUUACAAUUUGUUCUACTT against Dsc1 | inactive: 1 |
| GGCAGGUGUGGCUUUCUUCTT against Gpsm1 | inactive: -0.0254 |
| GCCUUUACCCAAAUUAUCATT against Defb4 | inactive: 0.567 |
| CGUUCUACAACAAAUGGCUTT against Slc35c2 | inactive: -1.31 |
| GGAGGAAUCUUGGGUCUGATT against Gas2l2 | inactive: 0.0842 |
| GGAAAUGAAAAAGUUCUGGTT against Sppl2a | inactive: 0.583 |
| GCACGUACCAGUAUCCAGATT against Dnase1l2 | inactive: 0.613 |
| CGAUUCCAACAAGAAAGUGTT against Togaram2 | inactive: 0.649 |

An excerpt of these results, field by field.
GGAUCUUGGGUUGAUAUUUTT against Acsl4
  z-score: inactive: -0.524
GGAAGAAUUACAAAGGAUATT against Cnot4
  z-score: inactive: -0.974
GGAACUUAUCCUUCAUGGATT against Olfr714
  z-score: inactive: 1.63

Continued.

| Sequence | z-score |
| --- | --- |
| GCUCUAGAUGUCAACCUGATT against Larp1b | inactive: 0.683 |
| GGCCACAGAGCCAAAGAUUTT against Cdca7 | inactive: 0.808 |
| GGAGAUGACUCUUUCUGUATT against Olfr301 | inactive: 0.675 |
| GGAUCUCUGGGAAAUCUGCTT against Tap2 | inactive: -0.894 |
| GCAGCUGAUCACUGGAAAGTT against Tuba3a | inactive: -0.357 |
| GGAACCUACCUUUGACCCATT against Tbc1d17 | inactive: -0.283 |
| GGUUAUUCUUCUGGUGGUGTT against Olfr1234 | inactive: 0.494 |
| GGUUCUGGAAGUCUAAGAATT against Zmynd11 | inactive: 1.2 |
| GGCUGUGAACAAAUUUGUATT against Megf6 | inactive: -0.109 |
| GCAGCUAGUCUUUUAGGUATT against Nasp | inactive: 1.58 |
| GGCAAUACGUAACAUGCCATT against Slc6a4 | inactive: -0.148 |
| GGGUGGGUUUGAGGUGUCUTT against Set | inactive: 1.51 |
| GGUCUUCGACACCAUUAACTT against Wipi2 | inactive: 0.947 |
| GGCUUAAAAUAAAAGUGCCTT against Nans | inactive: 0.175 |
| CCCAGCACAAGUGUAAGAUTT against Fzd10 | inactive: 0.184 |
| GGUACUACAAGAGAAAAGATT against Hdhd2 | inactive: -0.958 |
| GCUGAAAAACAAGACUUCGTT against Gabrg1 | inactive: 0.993 |
| GGCUCACAUCUCCUUACAUTT against Klrg1 | inactive: 0.979 |
| GGUGAUGAGCAGAAUCCAGTT against Ercc6l | inactive: 0.105 |
| CCACGAGCAUUGAAAACCUTT against Dmbx1 | inactive: -1.31 |
| GGGUCAUUGCUUAGAAACATT against Tcta | inactive: -1.82 |
| GGACAAGGCCACUUAAAUCTT against Hoxc8 | inactive: -0.0614 |
| GGUGAAAUACGAUUAUGAUTT against Galnt12 | inactive: -1.39 |

A stretch taken from the entries so far, for reference:

| Sequence | z-score |
| --- | --- |
| GGCCACAGAGCCAAAGAUUTT against Cdca7 | inactive: 0.808 |
| GGAGAUGACUCUUUCUGUATT against Olfr301 | inactive: 0.675 |

Next part.

| Sequence | z-score |
| --- | --- |
| CCCAUAAUCUCCGAUAUCATT against Hsf1 | inactive: 0.292 |
| CCAGUGUUUGACUUGACCATT against Dpysl3 | inactive: 0.228 |
| CCAUCAUACGAUGAUCUUATT against Pmaip1 | inactive: -0.696 |
| CGAUUACUGAACACUAUAUTT against Metap1 | inactive: 1.94 |
| GCGGCUUAGUCCAUCAGGATT against Aplf | inactive: 0.819 |
| GGUACAAUCCCAGAUUUGATT against Smc3 | active: -2.37 |
| GGCAAAGAAGGAUUCCUGCTT against Nkx3-2 | inactive: 0.524 |
| CCGCUACAGGUUUACCAAGTT against Rhox8 | inactive: 0.129 |
| GGCUUCAUGAUGUCCUGCATT against Cdk5 | inactive: -0.0138 |
| GGCAAUAAGCCCUUCACAATT against Slc66a1 | inactive: -0.541 |
| CCUUCUAUGGCCUUCUGAATT against Hapln4 | inactive: 0.419 |
| GGUUUGAUCACCUUAUUCUTT against Zfp750 | inactive: -0.226 |
| GCAUCACUUGGGUGGACAATT against Olfr1280 | inactive: 0.736 |
| GGAAGAUCAAAAGGUCAUUTT against Mybl2 | inactive: -0.76 |
| GGCAAACCAGGAAAAGGUCTT against Abhd2 | active: -2.33 |
| GGUUCACUGUUACACUCUGTT against Cdk17 | inactive: -1.61 |
| CCACUGAGUUCUUUCUACUTT against Olfr49 | inactive: -0.957 |
| CCAUACCAAUGAAUGCCUCTT against Fas | inactive: -1.4 |
| GCAAUAAAGAGUUCUGGCUTT against Cmtm2a | inactive: -0.0256 |
| GGCCUAUAUUGAUGAUUUUTT against 4930503L19Rik | active: 2.31 |
| GCAGGAAUAUACGAAUCACTT against Tmprss12 | inactive: 0.0172 |
| GGAACAAAUCGCUCUGUUGTT against Olfr1314 | inactive: -1.61 |

From PubChem BioAssay AID1508600 (Functional Genomics Laboratory (NCATS/FGL), 2020)
